Laboratory results from the supplement of paper PMC12823440, “Inhibitors supercharge kinase turnover through native proteolytic circuits” (Nature, 2025).
The other results are listed elsewhere or left out. Hit calls seldom repeat between salt and free forms of one compound.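 Kinases, fused to nanoluciferase, were expressed in K562 cells; luminescence was measured every 4 h from 2 to 18 h as percent of control (DMSO = 100%, positive control = 0%). A time point is decreased if signal falls significantly (2 sigma). Hits were called by the authors by a rule that is not shown; the count of time points alone does not decide it.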

By UniProt entry, the sequences of proteins in these tests, tags left out. Where a name states a change or a piece, a line headed by the entry shows the natural chain unless it says otherwise.
UniProt O15530: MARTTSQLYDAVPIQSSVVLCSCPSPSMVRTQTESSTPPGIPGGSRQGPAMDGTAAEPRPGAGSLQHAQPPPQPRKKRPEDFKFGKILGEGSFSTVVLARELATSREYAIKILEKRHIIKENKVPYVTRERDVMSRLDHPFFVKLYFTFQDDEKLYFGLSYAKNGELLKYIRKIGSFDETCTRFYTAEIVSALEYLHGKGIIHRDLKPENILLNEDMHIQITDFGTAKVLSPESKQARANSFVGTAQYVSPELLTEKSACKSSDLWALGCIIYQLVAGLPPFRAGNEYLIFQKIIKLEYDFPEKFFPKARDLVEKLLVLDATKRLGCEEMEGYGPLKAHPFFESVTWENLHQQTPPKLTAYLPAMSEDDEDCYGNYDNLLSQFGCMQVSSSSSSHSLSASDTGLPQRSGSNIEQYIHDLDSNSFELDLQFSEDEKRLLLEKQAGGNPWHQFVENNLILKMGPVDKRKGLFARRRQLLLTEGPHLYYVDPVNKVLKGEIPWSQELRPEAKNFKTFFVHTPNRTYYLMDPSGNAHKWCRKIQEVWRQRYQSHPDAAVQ
UniProt P42356, whole entry, looked up: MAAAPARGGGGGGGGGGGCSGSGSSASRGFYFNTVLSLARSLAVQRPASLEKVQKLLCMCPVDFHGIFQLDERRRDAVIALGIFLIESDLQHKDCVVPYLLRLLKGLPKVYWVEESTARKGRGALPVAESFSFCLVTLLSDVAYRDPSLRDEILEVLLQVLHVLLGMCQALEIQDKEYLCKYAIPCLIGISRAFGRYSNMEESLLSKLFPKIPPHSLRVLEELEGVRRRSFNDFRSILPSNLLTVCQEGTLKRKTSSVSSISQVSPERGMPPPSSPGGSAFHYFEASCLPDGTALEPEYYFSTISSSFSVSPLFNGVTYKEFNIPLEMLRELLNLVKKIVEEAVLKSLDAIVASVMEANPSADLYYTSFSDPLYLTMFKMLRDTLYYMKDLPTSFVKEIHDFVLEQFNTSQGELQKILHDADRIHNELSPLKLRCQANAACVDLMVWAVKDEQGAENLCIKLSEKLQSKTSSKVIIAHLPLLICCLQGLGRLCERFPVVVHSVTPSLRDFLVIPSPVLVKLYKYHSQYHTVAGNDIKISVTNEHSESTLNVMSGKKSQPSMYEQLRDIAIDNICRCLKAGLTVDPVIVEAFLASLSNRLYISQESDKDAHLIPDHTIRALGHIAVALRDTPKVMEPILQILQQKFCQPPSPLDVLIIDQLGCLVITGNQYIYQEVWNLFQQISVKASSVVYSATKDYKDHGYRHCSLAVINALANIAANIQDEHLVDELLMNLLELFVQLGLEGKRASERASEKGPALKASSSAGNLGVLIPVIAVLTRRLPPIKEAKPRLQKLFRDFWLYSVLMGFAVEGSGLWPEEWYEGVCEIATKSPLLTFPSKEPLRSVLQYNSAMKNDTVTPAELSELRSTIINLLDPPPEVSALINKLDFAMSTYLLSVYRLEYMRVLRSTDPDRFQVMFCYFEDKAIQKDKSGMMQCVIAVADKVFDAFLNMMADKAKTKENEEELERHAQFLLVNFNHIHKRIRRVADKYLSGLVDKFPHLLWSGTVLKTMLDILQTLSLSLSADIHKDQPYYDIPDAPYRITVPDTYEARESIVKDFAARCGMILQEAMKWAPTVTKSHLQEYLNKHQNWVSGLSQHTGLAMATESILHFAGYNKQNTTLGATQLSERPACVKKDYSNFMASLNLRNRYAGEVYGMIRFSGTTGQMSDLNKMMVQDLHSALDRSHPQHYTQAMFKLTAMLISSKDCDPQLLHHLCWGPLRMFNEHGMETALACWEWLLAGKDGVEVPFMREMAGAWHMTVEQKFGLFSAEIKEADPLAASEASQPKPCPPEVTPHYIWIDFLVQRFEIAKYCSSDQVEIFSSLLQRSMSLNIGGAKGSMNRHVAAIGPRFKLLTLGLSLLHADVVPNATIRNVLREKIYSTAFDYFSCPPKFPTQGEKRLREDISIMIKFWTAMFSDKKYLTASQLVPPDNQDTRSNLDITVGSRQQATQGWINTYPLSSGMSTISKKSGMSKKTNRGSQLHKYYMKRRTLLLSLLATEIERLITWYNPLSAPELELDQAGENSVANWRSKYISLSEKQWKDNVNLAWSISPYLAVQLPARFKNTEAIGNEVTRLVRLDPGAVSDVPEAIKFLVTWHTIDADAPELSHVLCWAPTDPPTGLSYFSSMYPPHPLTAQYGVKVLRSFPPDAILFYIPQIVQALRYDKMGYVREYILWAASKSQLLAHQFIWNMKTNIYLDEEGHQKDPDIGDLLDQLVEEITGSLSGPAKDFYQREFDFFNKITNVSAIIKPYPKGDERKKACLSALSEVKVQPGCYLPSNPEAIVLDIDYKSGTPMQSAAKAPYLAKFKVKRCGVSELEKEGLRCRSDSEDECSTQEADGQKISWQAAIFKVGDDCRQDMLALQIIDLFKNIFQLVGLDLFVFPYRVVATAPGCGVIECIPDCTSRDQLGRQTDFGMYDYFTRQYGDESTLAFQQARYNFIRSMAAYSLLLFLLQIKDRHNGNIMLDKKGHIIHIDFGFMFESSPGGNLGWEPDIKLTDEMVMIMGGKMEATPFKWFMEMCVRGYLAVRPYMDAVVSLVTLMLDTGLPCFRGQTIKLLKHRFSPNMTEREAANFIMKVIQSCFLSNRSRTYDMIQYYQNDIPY
UniProt Q05397, whole entry, looked up: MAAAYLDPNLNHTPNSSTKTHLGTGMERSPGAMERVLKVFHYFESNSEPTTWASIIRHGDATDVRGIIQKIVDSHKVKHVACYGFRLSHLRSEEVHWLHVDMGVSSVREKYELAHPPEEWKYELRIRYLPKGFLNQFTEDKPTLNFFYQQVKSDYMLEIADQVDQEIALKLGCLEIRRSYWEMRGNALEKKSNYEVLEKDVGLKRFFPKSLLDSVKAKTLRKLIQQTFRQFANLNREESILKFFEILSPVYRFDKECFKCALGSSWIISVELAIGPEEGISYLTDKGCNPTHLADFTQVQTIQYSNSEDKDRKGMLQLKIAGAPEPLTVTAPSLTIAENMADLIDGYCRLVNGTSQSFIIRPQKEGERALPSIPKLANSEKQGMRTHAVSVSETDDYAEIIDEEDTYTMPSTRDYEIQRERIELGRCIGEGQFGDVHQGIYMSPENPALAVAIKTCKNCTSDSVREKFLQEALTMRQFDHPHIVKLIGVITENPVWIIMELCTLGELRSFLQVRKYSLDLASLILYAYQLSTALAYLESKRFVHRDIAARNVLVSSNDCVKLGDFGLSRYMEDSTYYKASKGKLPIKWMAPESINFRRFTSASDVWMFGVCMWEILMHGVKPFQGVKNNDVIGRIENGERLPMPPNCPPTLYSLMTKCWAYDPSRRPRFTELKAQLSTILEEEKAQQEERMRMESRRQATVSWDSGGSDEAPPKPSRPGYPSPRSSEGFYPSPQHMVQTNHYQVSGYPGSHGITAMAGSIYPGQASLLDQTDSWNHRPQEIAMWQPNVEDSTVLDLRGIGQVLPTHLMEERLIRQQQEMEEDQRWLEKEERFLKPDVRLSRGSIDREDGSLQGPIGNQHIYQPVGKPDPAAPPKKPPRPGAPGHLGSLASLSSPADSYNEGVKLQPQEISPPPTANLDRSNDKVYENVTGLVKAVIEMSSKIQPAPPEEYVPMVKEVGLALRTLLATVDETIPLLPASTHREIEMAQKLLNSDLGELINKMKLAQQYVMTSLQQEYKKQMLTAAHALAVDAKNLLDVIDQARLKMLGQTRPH
UniProt Q01974, whole entry: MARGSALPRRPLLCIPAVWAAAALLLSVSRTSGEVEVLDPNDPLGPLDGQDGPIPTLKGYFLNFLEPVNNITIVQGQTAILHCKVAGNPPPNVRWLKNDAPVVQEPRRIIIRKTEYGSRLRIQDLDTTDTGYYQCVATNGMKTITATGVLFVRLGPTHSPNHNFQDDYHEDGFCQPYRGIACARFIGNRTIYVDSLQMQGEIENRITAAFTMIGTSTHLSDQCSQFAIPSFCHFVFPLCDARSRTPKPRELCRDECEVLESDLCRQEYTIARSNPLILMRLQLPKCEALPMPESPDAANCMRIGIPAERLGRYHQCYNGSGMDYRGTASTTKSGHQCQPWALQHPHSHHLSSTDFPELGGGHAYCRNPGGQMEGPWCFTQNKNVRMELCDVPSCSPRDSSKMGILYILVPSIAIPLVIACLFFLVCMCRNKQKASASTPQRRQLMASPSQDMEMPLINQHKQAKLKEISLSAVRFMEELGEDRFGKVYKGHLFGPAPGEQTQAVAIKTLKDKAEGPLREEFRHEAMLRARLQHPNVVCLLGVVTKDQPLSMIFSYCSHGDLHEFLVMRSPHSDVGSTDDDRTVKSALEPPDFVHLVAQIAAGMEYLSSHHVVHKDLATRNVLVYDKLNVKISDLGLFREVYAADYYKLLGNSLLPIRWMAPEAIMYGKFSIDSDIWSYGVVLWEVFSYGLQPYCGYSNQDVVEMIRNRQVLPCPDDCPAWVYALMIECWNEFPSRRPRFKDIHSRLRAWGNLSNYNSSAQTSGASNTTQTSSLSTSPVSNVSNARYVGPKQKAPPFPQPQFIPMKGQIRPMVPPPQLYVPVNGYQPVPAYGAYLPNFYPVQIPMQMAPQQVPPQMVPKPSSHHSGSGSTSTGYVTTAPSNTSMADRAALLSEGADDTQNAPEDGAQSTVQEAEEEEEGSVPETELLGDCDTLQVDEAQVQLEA
UniProt Q15418, whole entry: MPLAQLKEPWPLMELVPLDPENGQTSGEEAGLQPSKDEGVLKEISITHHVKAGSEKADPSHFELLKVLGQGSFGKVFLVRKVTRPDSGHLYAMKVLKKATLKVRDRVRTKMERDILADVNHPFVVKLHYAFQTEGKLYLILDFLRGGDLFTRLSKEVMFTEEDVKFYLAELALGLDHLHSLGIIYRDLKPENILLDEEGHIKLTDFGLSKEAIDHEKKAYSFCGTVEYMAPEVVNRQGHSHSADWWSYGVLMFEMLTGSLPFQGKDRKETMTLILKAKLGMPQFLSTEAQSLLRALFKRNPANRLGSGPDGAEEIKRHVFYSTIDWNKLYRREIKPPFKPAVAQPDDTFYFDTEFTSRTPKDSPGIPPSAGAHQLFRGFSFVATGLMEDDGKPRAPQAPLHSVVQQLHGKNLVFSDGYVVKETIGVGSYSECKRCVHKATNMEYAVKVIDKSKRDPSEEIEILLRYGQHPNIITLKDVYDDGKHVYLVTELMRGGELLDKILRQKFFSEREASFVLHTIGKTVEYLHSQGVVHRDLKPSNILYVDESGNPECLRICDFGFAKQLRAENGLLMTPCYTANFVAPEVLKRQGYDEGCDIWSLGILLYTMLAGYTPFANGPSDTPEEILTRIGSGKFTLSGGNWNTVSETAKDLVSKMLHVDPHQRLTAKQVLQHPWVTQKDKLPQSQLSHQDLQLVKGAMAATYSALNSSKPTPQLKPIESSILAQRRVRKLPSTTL
UniProt Q9NYA1, whole entry: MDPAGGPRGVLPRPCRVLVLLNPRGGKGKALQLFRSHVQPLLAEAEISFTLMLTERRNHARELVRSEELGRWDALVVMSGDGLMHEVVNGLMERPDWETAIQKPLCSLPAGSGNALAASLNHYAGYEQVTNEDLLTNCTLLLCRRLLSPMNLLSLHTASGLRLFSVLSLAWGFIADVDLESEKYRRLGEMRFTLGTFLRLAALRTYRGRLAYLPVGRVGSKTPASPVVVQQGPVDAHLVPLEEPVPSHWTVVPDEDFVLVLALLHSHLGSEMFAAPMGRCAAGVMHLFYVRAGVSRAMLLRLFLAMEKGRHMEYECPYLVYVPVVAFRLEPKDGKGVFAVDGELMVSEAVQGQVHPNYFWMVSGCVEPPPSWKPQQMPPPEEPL
UniProt Q9Y6E0: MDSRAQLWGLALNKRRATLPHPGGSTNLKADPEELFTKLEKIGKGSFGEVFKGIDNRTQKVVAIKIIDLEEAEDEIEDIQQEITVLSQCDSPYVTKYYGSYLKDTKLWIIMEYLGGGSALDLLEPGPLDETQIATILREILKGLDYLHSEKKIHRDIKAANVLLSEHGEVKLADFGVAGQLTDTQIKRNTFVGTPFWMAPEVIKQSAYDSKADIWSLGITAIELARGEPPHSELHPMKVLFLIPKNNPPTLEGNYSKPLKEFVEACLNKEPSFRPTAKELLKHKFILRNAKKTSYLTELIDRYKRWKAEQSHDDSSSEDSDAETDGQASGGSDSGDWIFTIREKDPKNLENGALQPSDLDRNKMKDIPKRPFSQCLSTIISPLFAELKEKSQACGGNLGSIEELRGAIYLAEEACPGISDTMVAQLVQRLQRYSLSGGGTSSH

Legend:
Assay in all cases: kinase-Nluc reporter destabilization hit call (1 = scored as downregulated) (binary); higher = compound decreases kinase abundance
Details in all cases: K562; 2-18 h
PDPK1 = PDPK1 (UniProt O15530)
PIK4CA = PIK4CA (UniProt P42356)
PIK4CB = PIK4CB (UniProt Q9UBF8)
PLK1 = PLK1 (UniProt P53350)
PRKAA1 = PRKAA1 (UniProt Q13131)
PRKCA = PRKCA (UniProt P17252)
PTK2 = PTK2 (UniProt Q05397)
PTK2B = PTK2B (UniProt Q14289)
RAF1 = RAF1 (UniProt P04049)
[1] = target: RAF1_S257L (clone: RAF1_mut) (UniProt P04049)
RET = RET (UniProt P07949)
[2] = target: RET_M918T (clone: RET_mut) (UniProt P07949)
RIOK1 = RIOK1 (UniProt Q9BRS2)
RIPK1 = RIPK1 (UniProt Q13546)
RIPK2 = RIPK2 (UniProt O43353)
ROR2 = ROR2 (UniProt Q01974)
RPS6KA1 = RPS6KA1 (UniProt Q15418)
SPHK1 = SPHK1 (UniProt Q9NYA1)
SRC = SRC (UniProt P12931)
STK24 = STK24 (UniProt Q9Y6E0)

Measured: kinase-Nluc reporter destabilization hit call

O=C(Nc1ccc(CN2CCOCC2)cc1)c1ccc(-c2cccc(Cl)c2)o1 (10 µM)
inactive: PDPK1 = 0 | PIK4CA 0 | PIK4CB 0 | PLK1 = 0 | PRKAA1 = 0 | PRKCA 0 | PTK2 = 0 | PTK2B 0 | RAF1 = 0 | [1] 0 | RET 0 | [2] 0 | RIOK1 = 0 | RIPK1 = 0 | RIPK2 = 0 | ROR2 = 0 | RPS6KA1 = 0 | SPHK1 = 0 | SRC 0 | STK24 = 0

S=C(SSC(=S)N1CCOCC1)N1CCOCC1 (10 µM)
inactive: PDPK1 = 0 | PIK4CA 0 | PIK4CB 0 | PLK1 = 0 | PRKAA1 = 0 | PRKCA 0 | PTK2 = 0 | PTK2B 0 | RAF1 = 0 | [1] 0 | RET 0 | [2] 0 | RIOK1 = 0 | RIPK1 = 0 | RIPK2 = 0 | ROR2 = 0 | RPS6KA1 = 0 | SPHK1 = 0 | SRC 0 | STK24 = 0

COc1ccc(OC)c(C2C(C#N)=C(N)Oc3n[nH]c(-c4ccc5ccccc5c4)c32)c1 (centres undefined) (10 µM)
inactive: PDPK1 = 0 | PIK4CA 0 | PIK4CB 0 | PLK1 = 0 | PRKAA1 = 0 | PRKCA 0 | PTK2 = 0 | PTK2B 0 | RAF1 = 0 | [1] 0 | RET 0 | [2] 0 | RIOK1 = 0 | RIPK1 = 0 | RIPK2 = 0 | ROR2 = 0 | RPS6KA1 = 0 | SPHK1 = 0 | SRC 0 | STK24 = 0

COc1cc2ncnc(Nc3ccc(Cl)cc3F)c2cc1OC (10 µM)
inactive: PDPK1 = 0 | PIK4CA 0 | PIK4CB 0 | PLK1 = 0 | PRKAA1 = 0 | PRKCA 0 | PTK2 = 0 | PTK2B 0 | RAF1 = 0 | [1] 0 | RET 0 | [2] 0 | RIOK1 = 0 | RIPK1 = 0 | RIPK2 = 0 | ROR2 = 0 | RPS6KA1 = 0 | SPHK1 = 0 | SRC 0 | STK24 = 0

Cc1[nH]c(/C=C2\C(=O)Nc3ccccc32)c(C)c1CCC(=O)O [Orantinib] (10 µM)
inactive: PDPK1 = 0 | PIK4CA 0 | PIK4CB 0 | PLK1 = 0 | PRKAA1 = 0 | PRKCA 0 | PTK2 = 0 | PTK2B 0 | RAF1 = 0 | [1] 0 | RET 0 | [2] 0 | RIOK1 = 0 | RIPK1 = 0 | RIPK2 = 0 | ROR2 = 0 | SPHK1 = 0 | SRC 0 | STK24 = 0

C=CC(=O)Nc1cc(C)ccc1Nc1nc(Nc2cc(OC)ncc2C)ncc1C(F)(F)F (10 µM)
inactive: PDPK1 = 0 | PIK4CA 0 | PIK4CB 0 | PLK1 = 0 | PRKAA1 = 0 | PRKCA 0 | PTK2 = 0 | PTK2B 0 | RAF1 = 0 | [1] 0 | RET 0 | [2] 0 | RIOK1 = 0 | RIPK1 = 0 | RIPK2 = 0 | ROR2 = 0 | RPS6KA1 = 0 | SPHK1 = 0 | SRC 0 | STK24 = 0

O=C1Nc2ccc(C(=O)c3ccco3)cc2C1=Cc1cc(Cl)c(O)c(Cl)c1 (2.5 µM)
inactive: PDPK1 = 0 | PIK4CA 0 | PIK4CB 0 | PRKAA1 = 0 | PTK2 = 0 | PTK2B 0 | RAF1 = 0 | [1] 0 | RET 0 | [2] 0 | RIOK1 = 0 | RIPK1 = 0 | RIPK2 = 0 | ROR2 = 0 | RPS6KA1 = 0 | SPHK1 = 0 | SRC 0 | STK24 = 0
active: PLK1 = 1 | PRKCA 1

Cc1cccc(-c2[nH]ncc2-c2ccc(F)c(-c3cnn(CCO)c3)c2)n1 (10 µM)
inactive: PDPK1 = 0 | PIK4CA 0 | PIK4CB 0 | PLK1 = 0 | PRKAA1 = 0 | PRKCA 0 | PTK2 = 0 | PTK2B 0 | RAF1 = 0 | [1] 0 | RET 0 | [2] 0 | RIOK1 = 0 | RIPK1 = 0 | RIPK2 = 0 | ROR2 = 0 | RPS6KA1 = 0 | SPHK1 = 0 | SRC 0 | STK24 = 0

O=c1cc(CN2CCOCC2)occ1OCCCCCSc1ccnc2cc(C(F)(F)F)ccc12 (10 µM)
inactive: PDPK1 = 0 | PIK4CA 0 | PIK4CB 0 | PLK1 = 0 | PRKAA1 = 0 | PRKCA 0 | PTK2 = 0 | PTK2B 0 | RAF1 = 0 | [1] 0 | RET 0 | [2] 0 | RIOK1 = 0 | RIPK1 = 0 | RIPK2 = 0 | ROR2 = 0 | RPS6KA1 = 0 | SPHK1 = 0 | SRC 0 | STK24 = 0
